The results in this text go back to the supplement of paper PMC10849652.

Protein sequences, listed by entry. Tags and fused reporters are not part of them. Lines headed by an entry give the natural chain unless they say otherwise; changes in a name come on top.
UniProt Q9UL68: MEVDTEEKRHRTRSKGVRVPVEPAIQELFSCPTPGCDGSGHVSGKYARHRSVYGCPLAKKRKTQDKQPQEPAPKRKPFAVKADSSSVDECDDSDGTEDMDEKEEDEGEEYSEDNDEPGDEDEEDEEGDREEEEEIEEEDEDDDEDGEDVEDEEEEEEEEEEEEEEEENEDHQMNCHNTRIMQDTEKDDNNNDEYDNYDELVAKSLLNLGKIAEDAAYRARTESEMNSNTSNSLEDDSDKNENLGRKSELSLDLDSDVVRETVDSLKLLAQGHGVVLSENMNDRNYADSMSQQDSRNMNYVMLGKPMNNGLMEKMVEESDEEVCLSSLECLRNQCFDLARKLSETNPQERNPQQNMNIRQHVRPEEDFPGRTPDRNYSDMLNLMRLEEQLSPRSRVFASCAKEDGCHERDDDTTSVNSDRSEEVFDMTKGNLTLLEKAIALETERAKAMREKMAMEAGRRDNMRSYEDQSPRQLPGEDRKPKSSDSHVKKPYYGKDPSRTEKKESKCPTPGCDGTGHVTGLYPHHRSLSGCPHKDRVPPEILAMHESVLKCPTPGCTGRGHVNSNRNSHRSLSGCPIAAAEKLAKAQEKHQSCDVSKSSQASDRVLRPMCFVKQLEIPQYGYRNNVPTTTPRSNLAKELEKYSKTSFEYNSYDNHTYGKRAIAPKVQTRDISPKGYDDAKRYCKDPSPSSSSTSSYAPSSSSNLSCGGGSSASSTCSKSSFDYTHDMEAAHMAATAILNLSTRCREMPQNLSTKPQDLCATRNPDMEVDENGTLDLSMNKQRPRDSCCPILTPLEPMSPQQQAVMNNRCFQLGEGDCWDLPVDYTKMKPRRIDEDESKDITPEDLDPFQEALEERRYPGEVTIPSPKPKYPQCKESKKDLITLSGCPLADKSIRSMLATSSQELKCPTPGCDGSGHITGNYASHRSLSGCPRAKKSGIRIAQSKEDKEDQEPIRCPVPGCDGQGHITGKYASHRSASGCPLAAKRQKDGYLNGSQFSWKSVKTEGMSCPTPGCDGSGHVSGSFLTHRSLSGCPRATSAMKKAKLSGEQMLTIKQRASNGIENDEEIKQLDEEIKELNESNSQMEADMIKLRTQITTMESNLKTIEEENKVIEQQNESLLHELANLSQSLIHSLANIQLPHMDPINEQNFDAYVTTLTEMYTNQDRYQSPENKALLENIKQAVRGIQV
UniProt Q6N069: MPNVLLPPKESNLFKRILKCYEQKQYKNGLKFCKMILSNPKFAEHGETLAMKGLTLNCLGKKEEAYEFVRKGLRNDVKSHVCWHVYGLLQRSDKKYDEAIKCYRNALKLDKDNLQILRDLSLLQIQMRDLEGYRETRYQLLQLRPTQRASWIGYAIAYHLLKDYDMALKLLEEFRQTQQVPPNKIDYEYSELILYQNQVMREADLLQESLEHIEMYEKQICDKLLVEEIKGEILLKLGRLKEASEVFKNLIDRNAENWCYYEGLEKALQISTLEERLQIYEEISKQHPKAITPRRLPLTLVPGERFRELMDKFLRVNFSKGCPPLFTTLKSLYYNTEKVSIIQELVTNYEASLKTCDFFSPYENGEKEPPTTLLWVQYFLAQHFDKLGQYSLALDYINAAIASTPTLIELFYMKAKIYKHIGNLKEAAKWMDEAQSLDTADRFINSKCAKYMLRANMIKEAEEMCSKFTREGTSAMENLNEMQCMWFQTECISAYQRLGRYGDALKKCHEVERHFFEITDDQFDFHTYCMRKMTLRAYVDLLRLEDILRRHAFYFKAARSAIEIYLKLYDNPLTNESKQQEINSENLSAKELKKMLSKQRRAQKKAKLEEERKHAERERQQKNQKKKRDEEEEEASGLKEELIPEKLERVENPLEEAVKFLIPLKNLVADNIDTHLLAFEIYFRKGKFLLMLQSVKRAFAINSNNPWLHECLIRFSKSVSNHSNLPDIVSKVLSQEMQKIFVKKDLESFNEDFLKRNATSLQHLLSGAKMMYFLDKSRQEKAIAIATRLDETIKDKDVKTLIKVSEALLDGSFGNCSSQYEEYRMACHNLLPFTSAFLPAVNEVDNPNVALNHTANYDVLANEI
UniProt Q5TBK1: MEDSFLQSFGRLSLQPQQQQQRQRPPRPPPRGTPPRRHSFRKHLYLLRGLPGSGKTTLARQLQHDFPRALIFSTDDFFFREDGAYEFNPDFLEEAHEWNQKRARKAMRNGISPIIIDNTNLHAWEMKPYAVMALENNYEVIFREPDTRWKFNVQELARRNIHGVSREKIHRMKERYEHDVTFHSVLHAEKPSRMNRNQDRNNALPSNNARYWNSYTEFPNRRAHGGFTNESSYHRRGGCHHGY
UniProt Q96NY9: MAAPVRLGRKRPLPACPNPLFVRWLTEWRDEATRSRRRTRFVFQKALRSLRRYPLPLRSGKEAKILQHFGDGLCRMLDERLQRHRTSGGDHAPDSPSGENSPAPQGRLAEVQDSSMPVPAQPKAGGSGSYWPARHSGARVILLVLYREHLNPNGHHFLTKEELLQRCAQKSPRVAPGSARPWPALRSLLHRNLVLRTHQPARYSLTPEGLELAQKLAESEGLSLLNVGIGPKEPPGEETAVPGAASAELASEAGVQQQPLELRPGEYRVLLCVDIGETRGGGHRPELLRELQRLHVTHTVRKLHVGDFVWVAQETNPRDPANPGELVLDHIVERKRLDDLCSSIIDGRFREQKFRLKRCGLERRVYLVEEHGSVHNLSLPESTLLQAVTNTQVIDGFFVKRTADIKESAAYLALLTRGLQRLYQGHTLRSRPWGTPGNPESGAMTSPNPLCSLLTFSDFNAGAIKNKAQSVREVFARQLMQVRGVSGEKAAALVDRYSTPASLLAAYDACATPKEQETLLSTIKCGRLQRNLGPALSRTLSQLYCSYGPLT
UniProt Q96AH0: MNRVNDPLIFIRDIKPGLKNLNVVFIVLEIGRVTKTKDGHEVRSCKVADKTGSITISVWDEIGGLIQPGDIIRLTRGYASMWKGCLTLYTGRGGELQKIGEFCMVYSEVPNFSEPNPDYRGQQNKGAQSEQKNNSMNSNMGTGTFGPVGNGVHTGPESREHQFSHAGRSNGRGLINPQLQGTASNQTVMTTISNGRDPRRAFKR
UniProt Q6ZVX7: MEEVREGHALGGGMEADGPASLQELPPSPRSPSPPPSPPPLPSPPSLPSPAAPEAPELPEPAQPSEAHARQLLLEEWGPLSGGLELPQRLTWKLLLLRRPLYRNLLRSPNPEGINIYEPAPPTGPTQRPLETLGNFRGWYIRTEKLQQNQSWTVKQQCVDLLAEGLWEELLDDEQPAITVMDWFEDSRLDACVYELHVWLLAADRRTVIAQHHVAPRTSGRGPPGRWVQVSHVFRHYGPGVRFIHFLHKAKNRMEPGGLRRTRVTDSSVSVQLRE
UniProt P13533, whole entry, looked up: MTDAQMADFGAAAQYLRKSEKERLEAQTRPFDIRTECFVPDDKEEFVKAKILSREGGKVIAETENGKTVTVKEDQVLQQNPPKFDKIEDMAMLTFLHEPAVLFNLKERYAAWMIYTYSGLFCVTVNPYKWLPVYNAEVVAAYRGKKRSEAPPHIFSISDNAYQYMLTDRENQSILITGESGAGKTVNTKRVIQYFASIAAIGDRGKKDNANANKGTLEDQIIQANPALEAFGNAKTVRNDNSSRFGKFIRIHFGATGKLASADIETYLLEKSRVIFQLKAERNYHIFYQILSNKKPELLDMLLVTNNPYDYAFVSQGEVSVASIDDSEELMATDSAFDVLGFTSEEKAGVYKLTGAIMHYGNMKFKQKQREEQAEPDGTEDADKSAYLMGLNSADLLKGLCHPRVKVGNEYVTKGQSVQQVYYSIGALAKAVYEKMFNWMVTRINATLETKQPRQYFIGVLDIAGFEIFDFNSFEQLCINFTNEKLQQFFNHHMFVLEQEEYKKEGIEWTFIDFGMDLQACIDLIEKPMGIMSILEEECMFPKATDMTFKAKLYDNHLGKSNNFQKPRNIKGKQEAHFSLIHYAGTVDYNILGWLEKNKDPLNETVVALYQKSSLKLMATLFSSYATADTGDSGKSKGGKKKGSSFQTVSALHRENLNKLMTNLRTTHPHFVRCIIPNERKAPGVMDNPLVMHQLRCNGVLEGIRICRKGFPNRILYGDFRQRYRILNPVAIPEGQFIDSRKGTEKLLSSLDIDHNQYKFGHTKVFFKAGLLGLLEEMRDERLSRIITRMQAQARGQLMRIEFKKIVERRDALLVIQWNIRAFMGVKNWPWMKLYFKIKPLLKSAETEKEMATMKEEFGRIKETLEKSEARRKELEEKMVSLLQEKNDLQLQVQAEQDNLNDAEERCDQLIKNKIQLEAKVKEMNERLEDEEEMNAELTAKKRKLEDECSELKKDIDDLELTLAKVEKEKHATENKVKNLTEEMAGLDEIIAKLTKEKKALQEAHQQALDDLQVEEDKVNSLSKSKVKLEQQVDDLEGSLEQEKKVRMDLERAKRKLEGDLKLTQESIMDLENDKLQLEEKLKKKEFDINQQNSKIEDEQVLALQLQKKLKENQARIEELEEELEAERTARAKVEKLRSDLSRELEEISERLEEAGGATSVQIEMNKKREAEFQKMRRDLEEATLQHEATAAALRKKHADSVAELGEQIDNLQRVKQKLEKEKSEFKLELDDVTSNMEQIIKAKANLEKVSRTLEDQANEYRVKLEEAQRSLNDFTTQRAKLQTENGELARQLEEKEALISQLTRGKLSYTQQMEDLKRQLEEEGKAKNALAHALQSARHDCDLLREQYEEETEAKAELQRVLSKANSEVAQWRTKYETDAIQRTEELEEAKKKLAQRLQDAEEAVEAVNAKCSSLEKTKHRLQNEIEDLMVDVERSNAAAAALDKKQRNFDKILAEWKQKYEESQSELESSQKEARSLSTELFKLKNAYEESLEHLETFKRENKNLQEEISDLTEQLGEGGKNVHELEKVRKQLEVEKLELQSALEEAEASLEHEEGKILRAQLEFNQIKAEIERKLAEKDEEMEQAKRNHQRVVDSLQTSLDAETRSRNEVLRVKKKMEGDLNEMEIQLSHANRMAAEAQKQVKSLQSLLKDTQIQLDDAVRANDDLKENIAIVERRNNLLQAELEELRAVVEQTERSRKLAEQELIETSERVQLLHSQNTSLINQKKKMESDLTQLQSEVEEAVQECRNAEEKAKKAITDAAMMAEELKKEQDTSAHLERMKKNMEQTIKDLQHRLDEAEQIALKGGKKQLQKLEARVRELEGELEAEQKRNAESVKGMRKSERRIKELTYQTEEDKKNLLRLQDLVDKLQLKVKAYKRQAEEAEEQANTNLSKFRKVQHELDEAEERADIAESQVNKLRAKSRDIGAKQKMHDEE
UniProt Q9BRK3: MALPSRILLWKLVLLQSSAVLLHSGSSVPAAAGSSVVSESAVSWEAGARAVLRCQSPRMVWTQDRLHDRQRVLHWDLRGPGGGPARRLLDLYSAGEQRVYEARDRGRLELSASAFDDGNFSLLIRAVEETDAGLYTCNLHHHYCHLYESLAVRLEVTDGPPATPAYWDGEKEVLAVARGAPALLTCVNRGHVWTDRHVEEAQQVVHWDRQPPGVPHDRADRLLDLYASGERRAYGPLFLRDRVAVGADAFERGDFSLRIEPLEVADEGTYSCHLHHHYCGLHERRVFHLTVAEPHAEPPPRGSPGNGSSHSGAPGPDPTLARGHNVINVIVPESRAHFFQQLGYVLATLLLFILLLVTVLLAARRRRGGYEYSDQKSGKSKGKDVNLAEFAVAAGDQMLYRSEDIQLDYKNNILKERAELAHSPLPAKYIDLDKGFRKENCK

What all share (assay): log2 fold change, soluble protein after heating vs DMSO (PISA); higher = thermal stabilisation; K562 lysate, 10 uM; active = over 0.2 and 3.5 SD of the protein, either way, in both replicates (recomputed)
Compound in assay [1]: C#Cc1cccc(Nc2ncnc3cc(OCCOC)c(OCCOC)cc23)c1 [erlotinib]
The method in brief: (§1)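 Soluble protein was defined as the supernatant remaining after 21,000xg for 90 min, following pooling of heated aliquots and adjustment to 0.5% NP-40 at 4°C. Before that, crude K562 extract at 1 mg/mL protein in PBS pH 7.4 with 1 mM MgCl2 was treated with 10 μM compound for 30 min and heated for 3 min across 48°C-58°C. Quantification used TMTpro 16plex LC-MS/MS with channel sums equalised, and values are log-two fold changes in thermal stability relative to solvent controls from duplicates.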

Compound in assay [2]: C1=CC(=CC=C1C2=NC3=C(N2)C=C(C=C3)C(=O)N)OC4=CC=C(C=C4)Cl
The method in brief: as §1

Compound in assay [3]: CC(=O)c1cnc2ccc(-c3cc(Cl)c(O)c(Cl)c3)nc2c1N[C@H]1CC[C@H](CN(C)C)CC1
In short, it runs like this: as §1

Compound in assay [4]: CC(C)C1=C2N=C(C=C(N2N=C1)NCC3=CC=CC=C3)NCCCCCCN
In short, it runs like this: as §1

Compound in assay [5]: CC1=C(C2=C(C=C1)C(=O)C3=CC=CC=C3N2CCCN)C
In short, it runs like this: as §1

Compound in assay [6]: CC1=CC=C(C=C1)SC2=C3C=C(SC3=CN=C2)C(=O)N
The method in brief: as §1

Compound in assay [7]: C1=CC=C(C=C1)C2=NC(=C(N2)C3=CC=NC=C3)C4=CC(=C(C=C4)Cl)O
The method in brief: as §1

Compound in assay [8]: C1COCCN1CCN2C3=CC=CC=C3N=C2NC(=O)C4=CC(=CC=C4)[N+](=O)[O-] [IRAK-1-4 Inhibitor I]
In short, it runs like this:
as §1

Compound in assay [9]: CC(C)(C)Cn1c(N)nc2ccc(-c3[nH]c(C(C)(C)C)nc3-c3ccc(F)cc3)nc21 [ralimetinib]
The method in brief: as §1

Compound in assay [10]: CC(C)(O)CC(=O)NCCn1ccc2ncnc(Nc3ccc(Oc4cccc(C(F)(F)F)c4)c(Cl)c3)c21
In short, it runs like this:
as §1

Compound in assay [11]: CC1=C(C=C(C=C1)NC(=O)C2=CC(=CC=C2)N(C)C)NC(=O)C3=CC=C(C=C3)O
In short, it runs like this:
as §1

Compound in assay [12]: C/C(=N\NC(=O)C1=CC(=CC=C1)S(=O)(=O)N2CCOCC2)/C3=C(C=CC(=C3)Cl)O
In short, it runs like this:
as §1

Compound in assay [13]: C1=CC2=C(C=CC(=C2)/C=C\3/C(=O)NC(=NCC4=CC=CS4)S3)N=C1
The method in brief: as §1

Compound in assay [14]: C1=CC2=NC=CN=C2C=C1/C=C/3\C(=O)NC(=O)S3
The method in brief: as §1

Compound in assay [15]: C1=CC=C2C(=C1)C3=NNC4=CC=CC(=C43)C2=O
The method in brief:
as §1

Compound in assay [16]: C1CCN(C1)C(=O)NC2=CC=CC(=C2)NC3=NC=C(C(=N3)NCCC4=CN=CN4)Br
The method in brief:
as §1

Compound in assay [17]: C1CN(CCC1(CC2=CC=C(C=C2)Cl)N)C3=NC=NC4=C3C=CN4
The method in brief: as §1

Compound in assay [18]: C=CC(=O)N1CCC[C@@H](n2nc(-c3ccc(Oc4ccccc4)cc3)c3c(N)ncnc32)C1 [ibrutinib]
In short, it runs like this: as §1

Compound in assay [19]: CC1=C(C(CC(=O)N1)C2=CC=C(C=C2)C(F)(F)F)C(=O)NC3=C(C=C4C(=C3)C=NN4)F
In short, it runs like this:
as §1

Compound in assay [20]: CC1=C(C=C(C=C1)NC(=O)C2=CC(=CC=C2)C(C)(C)C#N)NC3=CC4=C(C=C3)N=CN(C4=O)C
The method in brief:
as §1

Some of the results follow.

For NAP1L4 (UniProt C9JZI7), the log2 fold change in assay [1] was inactive: -0.197; in [2], inactive: -0.078; in assay [3], inactive: 0.095; in [4], inactive: 0.031; in [5] it was inactive: -0.065; in [6], inactive: -0.002.
As for MYT1L (UniProt Q9UL68), the log2 fold change in [7] was inactive: 0.017; in assay [8], inactive: 0.092; in [3], inactive: 0.041; in assay [9], inactive: 0.031; in assay [10], inactive: 0.03; in assay [11], inactive: 0.134. Moreover, the log2 fold change in assay [6] was inactive: -0.061.
NAA16 (UniProt Q6N069): the log2 fold change in assay [12] was inactive: -0.036; in assay [13], inactive: -0.022; in [14] it was inactive: 0.027; in [7], inactive: -0.127; in [15], inactive: -0.206; in assay [16], inactive: 0.136. Moreover, the log2 fold change in [17] was inactive: -0.038; in assay [8], inactive: 0.017; in [18], inactive: -0.047; in [3] it was inactive: 0.097; in assay [9] it was inactive: -0.179; in assay [10], inactive: 0.085. For the same target, the log2 fold change in assay [19] is inactive: 0.092; in [5], inactive: 0.105; in assay [11] it was inactive: 0.147; in [6] it was inactive: 0.062.
Regarding NARS1 (UniProt K7ENF0), the log2 fold change in assay [20] was inactive: -0.059.
With N4BP2L1 (UniProt Q5TBK1), the log2 fold change in assay [12] was inactive: -0.03; in assay [13], inactive: -0.177; in [14], inactive: -0.058; in [15], inactive: -0.137; in assay [16], inactive: -0.145; in [17], inactive: -0.191. The log2 fold change in [18] was inactive: -0.085; in assay [3] it was inactive: 0.002; in [19], inactive: -0.12; in [6], inactive: -0.129.
Turning to NCL (UniProt H7BY16), the log2 fold change in [14] is inactive: 0.051; in assay [18] it was inactive: -0.127; in [19], inactive: 0.015.
Turning to MUS81 (UniProt Q96NY9), the log2 fold change in assay [1] is inactive: -0.088; in [2], inactive: 0.025; in assay [14] it was inactive: -0.13; in [7], inactive: 0.033; in [8] it was inactive: -0.081; in assay [18], inactive: -0.28. The log2 fold change is inactive: 0.236 in [3]; inactive: -0.046 in assay [9]; inactive: 0.028 in assay [10]; inactive: 0.024 in assay [4]; inactive: 0.054 in [19]; inactive: 0.017 in assay [5]. For the same target, the log2 fold change in assay [20] was inactive: -0.044; in [11] it was inactive: 0.074; in assay [6], inactive: -0.17.
As for NABP1 (UniProt Q96AH0), the log2 fold change in assay [12] was inactive: -0.045; in [13], inactive: -0.053; in assay [15], inactive: -0.238; in assay [16] it was inactive: 0.114; in assay [17] it was inactive: -0.048; in assay [19], inactive: 0.072.
MYOF (UniProt Q9NZM1): in [5], the log2 fold change is inactive: 0.083.
Turning to MYLK (UniProt Q15746), the log2 fold change in assay [12] is inactive: -0.067; in [13] it was inactive: 0.027; in assay [14] it was inactive: 0.025; in assay [15], inactive: 0.345; in assay [16] it was inactive: 0.106; in assay [17] it was inactive: -0.262. In addition, the log2 fold change is inactive: 0.099 in assay [18]; inactive: 0.226 in assay [3]; inactive: 0.061 in assay [19]; inactive: 0.228 in [20]; inactive: 0.004 in [6].
On to MUC5B (UniProt Q9HC84), for which the log2 fold change in [1] was inactive: -0.049; in [2] it was inactive: -0.075; in assay [16], inactive: -0.076; in [17] it was inactive: -0.277; in [3], inactive: -0.129; in assay [4], inactive: -0.059. Besides, the log2 fold change in assay [19] is inactive: 0.852; in [5], inactive: -0.115; in [20], inactive: 0.011; in assay [6] it was inactive: -0.108.
Take NCCRP1 (UniProt Q6ZVX7): the log2 fold change in assay [14] was inactive: 0.48; in assay [7] it was inactive: 0.133; in [8], inactive: -0.13; in assay [18] it was inactive: -0.217; in assay [3] it was inactive: -0.137; in assay [9] it was inactive: -0.134. Moreover, the log2 fold change in assay [10] was inactive: 0.684; in assay [5] it was inactive: 0.328; in assay [20] it was inactive: 0.149; in assay [11], inactive: 0.013; in assay [6], inactive: 0.052.
Turning to MYH6 (UniProt P13533), the log2 fold change in [1] was inactive: 0.107; in assay [2], inactive: 0.08; in assay [14], inactive: 0.304; in assay [7], inactive: 0.029; in assay [16] it was inactive: -0.049; in [17], inactive: 0.115. The log2 fold change was inactive: 0.052 in [8]; active: 0.793 in [18]; inactive: -0.017 in assay [3]; inactive: 0.045 in assay [9]; inactive: -0.157 in assay [10]; inactive: 0.01 in assay [4]. Also, the log2 fold change is inactive: 0.047 in assay [20], inactive: -0.081 in [11] and inactive: -0.172 in assay [6].
For the target MXRA8 isoform 2 (UniProt Q9BRK3), the log2 fold change in assay [14] was inactive: -0.049; in assay [18], inactive: 0.023.
